According to PMC11868365:
These are yes or no findings as the source states them, for the method shown. Binding seen in cells or lysates may run through a third protein.

Chains of the proteins cited; added tags and fusions are not shown.
UniProt O60674: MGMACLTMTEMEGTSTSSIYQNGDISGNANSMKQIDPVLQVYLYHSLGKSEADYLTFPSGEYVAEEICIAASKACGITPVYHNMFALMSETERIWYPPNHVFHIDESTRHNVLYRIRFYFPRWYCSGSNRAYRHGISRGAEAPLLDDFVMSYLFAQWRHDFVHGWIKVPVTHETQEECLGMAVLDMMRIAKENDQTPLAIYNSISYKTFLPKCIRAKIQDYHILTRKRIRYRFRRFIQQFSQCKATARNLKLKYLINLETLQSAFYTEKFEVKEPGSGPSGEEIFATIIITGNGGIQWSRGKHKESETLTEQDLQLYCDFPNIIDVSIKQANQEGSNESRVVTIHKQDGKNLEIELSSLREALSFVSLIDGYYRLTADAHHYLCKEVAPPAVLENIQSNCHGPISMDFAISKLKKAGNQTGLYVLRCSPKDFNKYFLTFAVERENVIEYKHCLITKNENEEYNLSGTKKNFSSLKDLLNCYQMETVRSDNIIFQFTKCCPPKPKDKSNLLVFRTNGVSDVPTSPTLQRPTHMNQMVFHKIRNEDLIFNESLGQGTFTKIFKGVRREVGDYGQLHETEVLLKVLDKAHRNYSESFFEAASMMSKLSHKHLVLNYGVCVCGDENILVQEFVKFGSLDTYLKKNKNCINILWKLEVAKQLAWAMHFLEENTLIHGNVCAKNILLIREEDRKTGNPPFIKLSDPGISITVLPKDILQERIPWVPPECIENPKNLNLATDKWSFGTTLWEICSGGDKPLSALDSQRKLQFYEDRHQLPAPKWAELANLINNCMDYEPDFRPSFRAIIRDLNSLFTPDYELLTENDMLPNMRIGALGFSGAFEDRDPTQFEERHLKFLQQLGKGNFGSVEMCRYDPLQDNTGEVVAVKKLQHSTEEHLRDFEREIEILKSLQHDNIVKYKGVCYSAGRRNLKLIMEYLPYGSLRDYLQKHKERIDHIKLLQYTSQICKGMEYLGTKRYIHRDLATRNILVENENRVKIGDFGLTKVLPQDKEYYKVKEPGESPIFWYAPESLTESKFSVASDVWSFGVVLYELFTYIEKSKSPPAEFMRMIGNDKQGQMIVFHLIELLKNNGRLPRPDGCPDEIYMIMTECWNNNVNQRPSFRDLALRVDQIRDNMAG
UniProt P46937: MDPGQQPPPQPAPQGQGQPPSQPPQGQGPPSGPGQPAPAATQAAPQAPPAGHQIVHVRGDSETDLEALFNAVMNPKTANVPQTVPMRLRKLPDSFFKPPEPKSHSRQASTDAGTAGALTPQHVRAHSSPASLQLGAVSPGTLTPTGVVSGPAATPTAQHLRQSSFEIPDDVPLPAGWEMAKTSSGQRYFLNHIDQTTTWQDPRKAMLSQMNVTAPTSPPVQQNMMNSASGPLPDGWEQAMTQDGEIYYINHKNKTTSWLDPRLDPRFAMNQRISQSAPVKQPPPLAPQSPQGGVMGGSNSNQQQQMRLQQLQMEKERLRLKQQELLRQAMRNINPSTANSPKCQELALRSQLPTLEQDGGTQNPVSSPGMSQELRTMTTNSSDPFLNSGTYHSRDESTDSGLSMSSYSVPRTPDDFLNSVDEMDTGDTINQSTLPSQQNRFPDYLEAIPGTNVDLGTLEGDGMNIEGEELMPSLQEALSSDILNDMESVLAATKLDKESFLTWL

Assays:
[1] = target: T1, PTPRO (human (endogenous in ZR75-1)) (UniProt Q16827); assay: co-IP; endogenous proteins in ZR75-1 cells; IP with anti-PTPRO, anti-JAK2 or anti-YAP antibodies
T1 sequence: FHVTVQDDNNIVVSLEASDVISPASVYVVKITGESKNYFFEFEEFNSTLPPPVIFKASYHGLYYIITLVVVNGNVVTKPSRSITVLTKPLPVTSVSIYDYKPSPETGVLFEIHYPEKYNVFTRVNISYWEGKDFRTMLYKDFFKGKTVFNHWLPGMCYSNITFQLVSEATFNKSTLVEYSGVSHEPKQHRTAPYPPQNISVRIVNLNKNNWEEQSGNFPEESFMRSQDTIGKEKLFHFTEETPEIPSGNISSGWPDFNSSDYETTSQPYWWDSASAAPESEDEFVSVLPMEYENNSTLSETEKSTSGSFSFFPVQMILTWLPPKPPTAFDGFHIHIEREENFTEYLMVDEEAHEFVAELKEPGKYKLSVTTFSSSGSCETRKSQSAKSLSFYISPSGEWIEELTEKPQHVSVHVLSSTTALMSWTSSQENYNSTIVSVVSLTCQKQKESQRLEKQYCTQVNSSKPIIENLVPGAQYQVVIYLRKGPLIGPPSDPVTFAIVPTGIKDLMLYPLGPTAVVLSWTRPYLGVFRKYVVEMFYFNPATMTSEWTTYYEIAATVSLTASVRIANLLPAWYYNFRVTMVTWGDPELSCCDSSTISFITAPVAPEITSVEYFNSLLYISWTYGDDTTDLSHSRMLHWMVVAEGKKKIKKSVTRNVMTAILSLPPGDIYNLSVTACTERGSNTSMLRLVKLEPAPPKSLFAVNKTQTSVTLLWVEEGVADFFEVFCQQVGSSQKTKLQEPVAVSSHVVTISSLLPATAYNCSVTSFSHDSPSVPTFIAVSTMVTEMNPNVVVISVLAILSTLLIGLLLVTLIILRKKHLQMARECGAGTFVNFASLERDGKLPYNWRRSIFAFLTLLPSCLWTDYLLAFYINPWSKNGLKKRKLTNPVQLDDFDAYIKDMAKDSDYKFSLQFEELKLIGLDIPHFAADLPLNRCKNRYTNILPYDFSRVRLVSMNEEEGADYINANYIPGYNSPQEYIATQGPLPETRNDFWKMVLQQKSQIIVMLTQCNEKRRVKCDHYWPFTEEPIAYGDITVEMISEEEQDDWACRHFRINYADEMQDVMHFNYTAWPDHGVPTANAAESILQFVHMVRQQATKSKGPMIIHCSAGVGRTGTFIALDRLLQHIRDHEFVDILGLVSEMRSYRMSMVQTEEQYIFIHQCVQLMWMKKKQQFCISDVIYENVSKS

[2] = target: JAK2 (human (endogenous in ZR75-1)) (UniProt O60674); assay: as above

binding [1]: no binding | binding [2]: no binding
Substance: YES-associated protein (YAP) (from UniProt P46937 1-504)
